A word on the AC50: it is the midpoint of the concentration-response curve, whichever way the signal moves.

This passage reports AC50 results from PubChem BioAssay AID493014 (National Center for Advancing Translational Sciences (NCATS), 2011).

The structures appear in SMILES notation. The list shows a part of the results. The main result of the screen is listed elsewhere. These columns were measured beside it and carry no call. Most of these compounds were active or inconclusive in the main read-out, so they are no random draw. Potencies come from curve fits of mixed quality, noted in brackets.

This experiment in a line: qHTS Assay to Find Inhibitors of Chronic Active B-Cell Receptor Signaling. The conditions noted are these: ABC-DLBCL IkBa-CBG/CBR reporter, luminescence ratio (green luciferase fused to IkBa over red control in TMD8 lymphoma cells), 4 h. In outline: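 Concentration-response series (up to 46 uM) were applied to TMD8 dual-reporter cells for 4 h at 37C with doxycycline. Green/red ratio, after filter-overlap correction, defined %Activity; red signal alone was normalised to basal cells and zero luminescence.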
(In general: Quantitative high-throughput screening tests each substance at several concentrations.)

Setting [1] is: measured here: IkBa-CBG green luminescence.
Setting [2] is: measured here: CBR red luminescence, cell number.

Turning to `COc1ccc(NS(=O)(=O)c2ccc3ccccc3c2)c2ncccc12`, the AC50 under setting [1] is 3.55 µM [falling, partial curve, poor fit].

In the case of `Cc1cccc(NC(=O)c2ccc(F)c(S(=O)(=O)N(C)C3CCCCC3)c2)c1`, the AC50 by setting is: under setting [2], 17.8 µM [falling, partial curve, poor fit]; under setting [1], 17.8 µM [rising, single point].

As to `Clc1ccccc1CN(Cc1ccco1)Cc1nnnn1C1CCCC1`, under setting [2], the AC50 was 20.6 µM [falling, partial curve, poor fit].

For the molecule `CN1CCN(C(=O)c2ccccc2N(Cc2ccccc2)S(C)(=O)=O)CC1`, under setting [2], the AC50 is 2.59 µM [rising, single point].

`O=Cc1[nH]c2ccccc2c1N(C(=O)CCl)c1ccc([N+](=O)[O-])cc1`: the AC50 under setting [2] was 35.5 µM [falling, single point] and the AC50 under setting [1] is 12.6 µM [rising, partial curve, poor fit].

Regarding `Cc1cc(NC(=O)CSc2nnc(-c3ccc(S(=O)(=O)N4CCCC4)cc3)n2C)no1`, the AC50 under setting [2] is 20 µM [rising, single point].

For the molecule `Cc1ccc2cc(CCNC(=O)C3CCCC3)c(=O)[nH]c2c1`, the AC50 under setting [2] was 2.06 µM [rising, full curve, poor fit].

For the molecule `COc1cc(/C=N/Nc2nc3ccccc3s2)ccc1O`, under setting [2], the AC50 was 15.8 µM [falling, single point].

For the molecule `CC(=O)c1sc(NC(=O)c2cc(=O)c3ccccc3o2)nc1C`, under setting [2], the AC50 was 0.355 µM [falling, full curve].

Turning to `O=C(Cc1ccccc1)Nc1nnc(-c2cccc([N+](=O)[O-])c2)s1`, the AC50 under setting [2] was 16.4 µM [rising, single point].

In the case of `COc1ccc(S(=O)(=O)N2CCN=C2SCc2cccc(C)c2)cc1`, the AC50 under setting [2] is 6.31 µM [rising, full curve].

Turning to `CCC(C(=O)OCC(=O)c1ccc(OC)cc1OC)c1ccccc1` (configuration not stated), the AC50 under setting [2] is 20.6 µM [rising, partial curve, poor fit].

As for `Cc1cc2ncc(-c3cccs3)nc2cc1C`, under setting [2], the AC50 was 4.47 µM [rising, partial curve].

Regarding `C[C@]12CC[C@@H]3c4ccc(O)cc4CC[C@H]3[C@@H]1CC[C@@H]2O`, the AC50 is, setting by setting: under setting [2], 16.4 µM [rising, single point]; under setting [1], 16.4 µM [falling, single point].

Regarding `Fc1ccc(C2c3cccn3CCN2C(=S)Nc2cccc(F)c2)cc1` (configuration not stated), the AC50 under setting [2] is 20 µM [falling, single point].

As to `CCOC(=O)c1[nH]c(C)c(C(=O)OCC(=O)NC(=O)NC(C)(C)C)c1C`, under setting [2], the AC50 was 2.91 µM [falling, full curve, poor fit].

As to `COc1ccccc1/C=C/[C@@H]1C[C@H]2CN(Cc3cccc(Cl)c3)C(=O)[C@]23CCCN13`, the AC50 under setting [2] is 11.2 µM [falling, partial curve, poor fit].

For `C=CCc1ccc(OCCOc2ccc(/C=N/n3cnnc3)cc2OCC)c(OC)c1`, under setting [1], the AC50 is 20.6 µM [falling, partial curve, poor fit].

Consider `O=S(=O)(Nc1cccc(CCc2ccccn2)c1)c1ccc(Cl)cc1`, for which the AC50 under setting [2] is 5.01 µM [falling, single point].

Consider `Cc1cc(C)n2c(SCCO)nnc2n1`, for which the AC50 under setting [2] was 1 µM [falling, partial curve, poor fit].

Consider `O=C(NCC1CCCO1)C(c1cccs1)N(Cc1cccs1)C(=O)c1ccc(-c2ccccc2)[nH]1` (configuration not stated), for which the AC50 under setting [2] was 32.6 µM [falling, single point].

In the case of `O=c1c2c3c(sc2nc(NCCO)n1CCc1ccccc1)CCCCC3`, the AC50 under setting [2] is 13 µM [rising, partial curve, poor fit].

For `COc1ccccc1NS(=O)(=O)c1ccc(C)c(NC(=O)NCCCl)c1`, the AC50 under setting [2] was 31.6 µM [falling, single point].

Regarding `Cc1cccc(-c2nsc(SCC(=O)c3ccc(Cl)cc3)n2)c1`, the AC50 under setting [2] is 32.6 µM [rising, single point].

For the molecule `N#CCCN(C(=O)COC(=O)CCc1nc2ccccc2c(=O)[nH]1)c1ccc(F)cc1`, the AC50 under setting [2] is 20.6 µM [falling, single point].

Take `CC(CCc1ccccc1)NC(=O)COC(=O)c1ccc(NC(=O)CC#N)cc1` (configuration not stated): under setting [2], the AC50 is 35.5 µM [falling, single point].

In the case of `O=C(Nc1ccccc1)c1cc([N+](=O)[O-])ccc1Cl`, the AC50 under setting [2] is 0.112 µM [falling, full curve, poor fit].

Turning to `CCn1c(=O)c(C(=O)Nc2ccccc2C)c(O)c2ccccc21`, the AC50 under setting [2] was 0.116 µM [falling, full curve, poor fit].

Consider `COc1ccc(NC(=O)CNc2ccc(C#N)cc2)cc1`, for which the AC50 under setting [2] is 22.4 µM [falling, single point].

Regarding `COc1cc(NC(=S)N(C)C)c(OC)cc1Cl`, under setting [2], the AC50 is 3.98 µM [falling, partial curve, poor fit].

Regarding `O=C(c1c[nH]c2ccccc12)C(Cl)c1ccccc1` (configuration not stated), the AC50 under setting [2] is 4.47 µM [falling, partial curve, poor fit].

On to `COc1cccc(N=c2oc3ccccc3cc2-c2nc3ccccc3[nH]2)c1`, for which the AC50 under setting [2] is 7.94 µM [falling, partial curve, poor fit].

With `CCOc1ccc(NCc2ccccc2OCc2cccc(F)c2)cc1`, the AC50 under setting [1] was 23.1 µM [falling, partial curve, poor fit].

On to `Brc1ccc(-c2cn3cccnc3n2)cc1`, for which, under setting [2], the AC50 is 1.03 µM [rising, full curve].

As for `CCOC(=O)c1ccc(N2CN(CC)CNC2=S)cc1`, the AC50 under setting [1] was 16.4 µM [falling, partial curve, poor fit].

For `N#Cc1c(NC(=S)NC(=O)c2ccccc2)sc2c1CCN(CCc1ccccc1)C2`, under setting [2], the AC50 is 2.06 µM [rising, partial curve].

`Cc1cccc2cc(-c3ccccc3)c(-c3ccccc3)c[n+]12`: the AC50 under setting [2] is 6.51 µM [falling, partial curve, poor fit].

`COC(CNC(=O)c1ccc2nc(-c3cccs3)c(-c3cccs3)nc2c1)OC`: the AC50 under setting [2] was 0.651 µM [rising, partial curve, poor fit].

Turning to `O=C(Nc1ccn(Cc2ccccc2F)n1)c1ccc(COc2cc(Cl)ccc2Cl)o1`, under setting [2], the AC50 was 6.31 µM [falling, partial curve].

For `COc1ccc(CCNC(=O)COc2ccc3c(C)cc(=O)oc3c2)cc1`, under setting [2], the AC50 was 32.6 µM [rising, single point].

Turning to `Clc1ccc(Cn2ccc3ccccc32)cn1`, the AC50 under setting [2] was 22.4 µM [rising, partial curve, poor fit].

Turning to `O=C(COc1cccc(Br)c1)N/N=C1\CCCc2ccccc21`, the AC50 under setting [2] is 15.8 µM [rising, partial curve, poor fit].

On to `COc1ccc(-n2c(C)nnc2SCC(=O)NC2CC2)cc1`, for which the AC50 under setting [2] is 5.01 µM [rising, partial curve, poor fit].

Regarding `COc1ccccc1CNc1nc(SC)ncc1CO`, the AC50 under setting [2] is 20.6 µM [rising, partial curve, poor fit].

As to `O=C(NCc1ccncc1)C(=O)Nc1nc(C23CC4CC(CC(C4)C2)C3)cs1`, the AC50 under setting [2] is 29.1 µM [falling, single point].

Turning to `C=CCN(C(=O)Nc1ccc(Cl)cc1)C1CC(=O)N(c2ccc(OC)cc2)C1=O` (configuration not stated), the AC50 under setting [2] was 0.411 µM [rising, partial curve, poor fit].

For `COc1ccc(OC)c(NC(=O)c2ccccc2NS(=O)(=O)c2cccc3cccnc23)c1`, the AC50 under setting [2] was 29.1 µM [rising, single point].

In the case of `O=C(O)CSCC(=O)Nc1ccc(-c2nc3ccccc3s2)cc1`, the AC50 under setting [2] was 11.2 µM [falling, partial curve].

As to `O=C(NCSc1ccccc1)c1ccccc1`, the AC50 under setting [2] was 3.26 µM [rising, partial curve, poor fit].

`COc1ccc(NC(=O)C2=Cc3cccc(OC)c3OC2)cc1`: the AC50 under setting [2] was 10 µM [falling, partial curve, poor fit].

For `CN1c2ccccc2-c2nc3ccccc3n2C1c1ccncc1` (configuration not stated), the AC50 under setting [2] was 14.6 µM [falling, partial curve, poor fit].

In the case of `Cc1ccc(-c2nnn3c2nc(Cl)c2ccccc23)cc1`, under setting [2], the AC50 was 4.47 µM [falling, partial curve].

On to `Cc1ccc(NS(=O)(=O)c2ccc3c(c2)NC(=O)CCS3)cc1C`, for which the AC50 under setting [2] is 35.5 µM [falling, partial curve, poor fit].

In the case of `N#CC(C#N)=C1C=CC=CN1/C(=C\c1ccco1)C(=O)c1ccccc1`, under setting [2], the AC50 is 9.2 µM [falling, partial curve].

`CC(=O)Oc1ccc(/C=C(\NC(=O)c2ccco2)C(=O)NCc2ccco2)cc1`: the AC50 under setting [2] is 11.2 µM [rising, partial curve, poor fit].

Regarding `CCOc1ccccc1NC(=O)CSc1nccn1-c1ccccc1`, the AC50 under setting [2] is 18.4 µM [falling, single point].

Regarding `COc1ccc2nc(N3C(=O)CNC3=S)sc2c1`, the AC50 under setting [2] was 1.41 µM [rising, full curve].

In the case of `CN(c1ccc(C(=O)NCC2CCCO2)cc1)S(C)(=O)=O` (configuration not stated), the AC50 under setting [2] was 0.103 µM [falling, full curve, poor fit].

As for `COc1cccc(-c2ncc3ccccc3c2COC(=O)c2cccc(Br)c2)c1`, the AC50 under setting [2] is 0.92 µM [falling, full curve, poor fit].

In the case of `CC(C)(C)c1nnc(N/N=C/c2ccc(Br)cc2)n(N)c1=O`, under setting [2], the half-maximal activity concentration (AC50) was 1.3 µM [rising, full curve, poor fit].

As for `CN(Cc1ccccc1)c1nc(N)nc(Cl)c1C=O`, the AC50 under setting [2] was 11.2 µM [falling, single point].

For the molecule `COC(=O)c1ccc(CSc2nc3ccccc3c(=O)n2CC(C)C)o1`, the AC50 under setting [2] is 15.8 µM [rising, single point].

On to `CC(=O)Nc1ccccc1C(=O)C(=O)Nc1cccc(Br)c1`, for which the concentration at half-maximal activity (AC50) under setting [2] is 0.794 µM [rising, full curve, poor fit].

In the case of `O=C(O)c1ccc(N/N=C2/CCSc3ccc(F)cc32)cc1`, under setting [2], the AC50 is 0.0891 µM [falling, full curve, poor fit].
